Data published in article doi:10.1101/2025.07.21.665852.
No constants are given. Whether binding was seen depends on the method and setting. Binding seen in cells or lysates may run through a third protein. Some binding calls cover weakened binding; strength is not graded here. Where a sequence is shown, tags or fusion partners need not be part of it.

Target: T1, Snf7-VC (yeast ESCRT-III subunit Snf7p fused to the Venus C-terminal fragment) (S. cerevisiae), P39929
T1 chain: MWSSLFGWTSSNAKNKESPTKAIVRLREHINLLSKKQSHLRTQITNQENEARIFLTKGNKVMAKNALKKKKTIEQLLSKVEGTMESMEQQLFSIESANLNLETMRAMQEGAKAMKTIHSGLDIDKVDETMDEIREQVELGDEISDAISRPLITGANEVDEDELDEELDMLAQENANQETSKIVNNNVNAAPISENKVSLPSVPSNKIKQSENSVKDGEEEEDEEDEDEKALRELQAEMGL
Assay: split reporter
Conditions: remark: other sources report otherwise

binding: binds
B1: Vps2-VN (yeast ESCRT-III subunit Vps2p fused to the Venus N-terminal fragment), P36108 1-232 (protein)
chain: MSLFEWVFGKNVTPQERLKKNQRALERTQRELEREKRKLELQDKKLVSEIKKSAKNGQVAAAKVQAKDLVRTRNYIQKFDNMKAQLQAISLRIQAVRSSDQMTRSMSEATGLLAGMNRTMNLPQLQRISMEFEKQSDLMGQRQEFMDEAIDNVMGDEVDEDEEADEIVNKVLDEIGVDLNSQLQSTPQNLVSNAPIAETAMGIPEPIGAGSEFHGNPDDDLQARLNTLKKQT
